Taken from: PubChem BioAssay AID743121 (NCATS, 2013)

Screen: 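Partners whose loss is lethal together with topoisomerase I blockade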 (primary screen)
System: MDA-MB-231 cells, a human breast cancer line
Knock-down reagent: single siRNA against human genes, 20 nM siRNA (0.8 pmol per well)
Time to read-out: 120 h (drug added 48 h after transfection, read 72 h later)
Challenge: camptothecin 20 nM (about EC30) for 72 h; vehicle 0.1% DMSO in parallel plates
Measurement: 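CellTiter-Glo ATP signal, scaled to control siRNA as percent viability; sensitisation given as log2 of untreated divided by camptothecin-treated viability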
Reading the numbers: log2 vehicle/camptothecin viability: higher = stronger sensitisation to camptothecin
Hit rule: 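Active genes have an RSA gene-level p-value below 0.001, computed from the ratios of their separate siRNAs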
The whole screen tested about 26,000 reagents; shown is a part drawn at random. Of all reagents, 167 (0.63%) got an active call. 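Calls are per gene from RSA p-values that are not deposited; an individual active-marked siRNA can sensitise only weakly.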 The numbers tell different reagents against one gene apart. Not all columns of the deposit are shown.

Which result is listed for KLC2 #1?
log2 vehicle/camptothecin viability: -0.283; call: inactive

What did the screen give for KLC2 #2?
log2 vehicle/camptothecin viability: -0.115; call: inactive

What is on record for KLC2 #3?
log2 vehicle/camptothecin viability: -0.512; call: inactive

What is on record for NFATC4 #1?
log2 vehicle/camptothecin viability: -0.582; call: inactive

How did the screen score NFATC4 #2?
log2 vehicle/camptothecin viability: -0.204; call: inactive

For NFATC4 #3, what does the deposit list?
log2 vehicle/camptothecin viability: -0.284; call: inactive

What did the screen give for NFATC4 #4?
log2 vehicle/camptothecin viability: -0.111; call: inactive

What is on record for TENM2 #1?
log2 vehicle/camptothecin viability: 0.563; call: inactive

What is on record for TENM2 #2?
log2 vehicle/camptothecin viability: -0.343; call: inactive

With TENM2 #3, what was measured?
log2 vehicle/camptothecin viability: -0.237; call: inactive

With TENM2 #4, how do the results read?
log2 vehicle/camptothecin viability: -0.362; call: inactive

Which result is listed for GPR39 #1?
log2 vehicle/camptothecin viability: -0.194; call: inactive

With GPR39 #2, how do the results read?
log2 vehicle/camptothecin viability: 0.0583; call: inactive

What is on record for GPR39 #3?
log2 vehicle/camptothecin viability: -0.134; call: inactive

With GPR39 #4, how do the results read?
log2 vehicle/camptothecin viability: -0.372; call: inactive

With PPP1R10 #1, what was measured?
log2 vehicle/camptothecin viability: 0.0863; call: inactive

For PPP1R10 #2, what was measured?
log2 vehicle/camptothecin viability: 0.206; call: inactive

How did the screen score PPP1R10 #3?
log2 vehicle/camptothecin viability: -0.589; call: inactive

With PPP1R10 #4, how do the results read?
log2 vehicle/camptothecin viability: -0.435; call: inactive

Which result is listed for EGFR #1?
log2 vehicle/camptothecin viability: 0.0877; call: inactive

With EGFR #2, how do the results read?
log2 vehicle/camptothecin viability: -0.501; call: inactive

What is on record for EGFR #3?
log2 vehicle/camptothecin viability: -0.303; call: inactive

What did the screen give for EGFR #4?
log2 vehicle/camptothecin viability: -0.329; call: inactive

4 entries from above, ordered by “log2 vehicle/camptothecin viability”, high to low.
KLC2 #2 → log2 vehicle/camptothecin viability: -0.115; call: inactive
KLC2 #1 → log2 vehicle/camptothecin viability: -0.283; call: inactive
KLC2 #3 → log2 vehicle/camptothecin viability: -0.512; call: inactive
NFATC4 #1 → log2 vehicle/camptothecin viability: -0.582; call: inactive

The list goes on:
For CFD #1, what was measured?
log2 vehicle/camptothecin viability: -0.0474; call: inactive

With CFD #2, what was measured?
log2 vehicle/camptothecin viability: 0.392; call: inactive

What did the screen give for CFD #3?
log2 vehicle/camptothecin viability: -0.354; call: inactive

What is on record for DUOX2 #1?
log2 vehicle/camptothecin viability: 0.0213; call: inactive

For DUOX2 #2, what was measured?
log2 vehicle/camptothecin viability: -0.0388; call: inactive

For DUOX2 #3, what does the deposit list?
log2 vehicle/camptothecin viability: -0.277; call: inactive

What is on record for DUOX2 #4?
log2 vehicle/camptothecin viability: -0.134; call: inactive

For NLGN2 #1, what does the deposit list?
log2 vehicle/camptothecin viability: 0.762; call: inactive

Which result is listed for NLGN2 #2?
log2 vehicle/camptothecin viability: 0.117; call: inactive

With NLGN2 #3, what was measured?
log2 vehicle/camptothecin viability: 0.00648; call: inactive

What is on record for NLGN2 #4?
log2 vehicle/camptothecin viability: -0.0807; call: inactive

For DLK1 #1, how do the results read?
log2 vehicle/camptothecin viability: -0.0769; call: inactive

How did the screen score DLK1 #2?
log2 vehicle/camptothecin viability: -0.349; call: inactive

For DLK1 #3, how do the results read?
log2 vehicle/camptothecin viability: -0.255; call: inactive
